In patent publication US4289645A (priority 1980, dated 1981):
For at least one compound, name, drawing or mass did not settle the structure.

Key:
[1] = Test for identification of mu-amines compatible with hydroquinone (Example 6); type: physicochemical; design: key: An asterisk (*) in a column indicates a positive result
From the text: The steps of this test are as follows:
Step 1: To a 1 pint glass jar which can be equipped with a cover lid add 80.0 grams of demineralized water and 10.0 grams of the amine to be tested.
Step 2: Stir the contents of the jar for one minute, preferably via a magnetic stirrer. If the amine is a solid, stir until complete dissolution into the water is attained.
Step 4: Stir the contents of the jar for three minutes. If precipitation within the jar occurs, then the amine is not a mu-amine. If no precipitate formation within the jar is evident, the amine may possibly be a mu-amine, so proceed to Step 5.
Step 5: Seal the jar and stir vigorously for seven minutes.
Step 6: After stirring, filter the contents of the jar through a 5 micron filter paper via suction. […] If the contents of the jar pass unhindered through the filter paper, the amine may possibly be a mu-amine and Steps 7 and 8 should be performed.
Step 7: Remove a 1.0 ml aliquot from the filtration flask or receiver (i.e., an aliquot of the former jar contents) with a syringe.
Step 8: Inject the contents of the syringe into the room temperature oxygen scavenger apparatus described in Example 4 above which contains air-saturated, demineralized water and sufficient sodium hydroxide to result in a pH 9-10 range in the reaction flask. […]

[2] = added to saturated aqueous hydroquinone (10.0 g hydroquinone, 89.5 g water)
Experimental: Volumes of mu-amines required to effect dissolution were recorded and converted to weights via density.

[3] = Oxygen scavenging at various concentrations and weight ratios of hydroquinone and mu-amine (Example 9)

In the case of `CCN(CC)CCO` [Diethylaminoethanol], the “Step 4: Possible mu-Amine” value ([1]; 10 g amine, 10 g hydroquinone, 80 g water, no precipitate after 3 min stirring) was “*”, the “Step 6: Possible mu-Amine” value ([1]; passes unhindered through 5 micron filter) was “*” and the “mu-amine required to effect dissolution” value [2] was 2.4 grams. The “% O2 Removed At 60 Seconds” value ([3]; 1.5% mu-amine, 10.0% hydroquinone (6.67:1)) was 95%, the “% O2 Removed At 60 Seconds” value ([3]; 30.0% mu-amine, 10.0% hydroquinone (1:3)) was 95% and the “% O2 Removed At 60 Seconds” value ([3]; 90.0% mu-amine, 10.0% hydroquinone (1:9)) was 95%.
